# Measurements from US9155778B2, “Tripeptides that down regulate the activity of plasma membrane transporters including sodium-D-glucose cotransporter SgIt1” (JULIUS-MAXMILLIANS-UNIVERSITAT WURZBURG, priority 2005, dated 2015).
# Some of these results come from one statement about several compounds together. Some compounds share one range, which may span the group rather than tell each member.
# Target: T1, hSGLT1 (Homo sapiens, UniProt P13866)
# T1 construct: expressed in transfected cells; host or cells: Xenopus laevis oocytes (cRNA injection)
# T1 sequence (P13866 1-664): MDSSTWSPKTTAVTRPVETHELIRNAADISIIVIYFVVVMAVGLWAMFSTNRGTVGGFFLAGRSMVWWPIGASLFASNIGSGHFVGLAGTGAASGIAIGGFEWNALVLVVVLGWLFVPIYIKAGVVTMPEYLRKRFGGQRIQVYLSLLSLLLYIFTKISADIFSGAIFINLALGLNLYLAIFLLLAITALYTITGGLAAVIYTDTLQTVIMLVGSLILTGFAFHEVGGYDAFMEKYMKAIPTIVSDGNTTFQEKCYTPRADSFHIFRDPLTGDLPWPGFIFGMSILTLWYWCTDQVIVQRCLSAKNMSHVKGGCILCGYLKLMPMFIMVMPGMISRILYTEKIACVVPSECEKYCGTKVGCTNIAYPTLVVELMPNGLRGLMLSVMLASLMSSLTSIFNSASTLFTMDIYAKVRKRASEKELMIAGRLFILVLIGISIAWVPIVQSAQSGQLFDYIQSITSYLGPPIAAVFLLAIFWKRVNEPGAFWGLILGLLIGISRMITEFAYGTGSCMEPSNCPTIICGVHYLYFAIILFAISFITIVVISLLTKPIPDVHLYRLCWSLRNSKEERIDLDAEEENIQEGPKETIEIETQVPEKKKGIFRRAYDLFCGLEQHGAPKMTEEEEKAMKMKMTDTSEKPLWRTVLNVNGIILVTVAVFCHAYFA
# Experiment: hSGLT1 expressed [14C]AMG uptake in Xenopus oocytes after injection of hRS1 protein or peptides
# Format: cell-based
# Details: 50 nl/oocyte containing 1.5 mM peptide, 30 min before uptake
row,Substance,inhibition of [14C]AMG uptake by injected peptide
1,QNEQCP: hexapeptide of hRS1 (listed as Homo sapiens),40-50%
2,"QNEQCPQVS (listed as Homo sapiens) [nonapeptide, amino acids 407-415 of hRS1]",40-50%
3,QCPQVS: hexapeptide of hRS1 (listed as Homo sapiens),40-50%
